Construct, isoform or probe ends are uncertain for at least one entry. For some assays here: Where cells or extracts were used, other partners may take part. For some assays here: No signal at the amounts used counts as a negative. For some assays here: At least one verdict was read from the data and is not stated in words by the source.
Tests used:
[1] = system: PTBP1 (endogenous) (Locusta migratoria); test: RNA pull-down with immunoblot and MS; conditions: terminal oocyte lysate; protein pull-down: 100 mM KCl, 20 mM Tris-HCl pH 7.6, 0.1% Triton X-100, 0.1% Tween-20, 4 C 2 h; protein in an extract; label: 3' …
[2] = system: PTBP1 (recombinant) (Locusta migratoria); test: protein pull-down with qPCR; conditions: 100 mM KCl, 20 mM Tris-HCl pH 7.6, versus empty-vector lysate, protein pull-down: 100 mM KCl, 20 mM Tris-HCl pH 7.6, 0.1% Triton X-100, 0.1% Tween-20, 4 C 2 h
[3] = system: FOXN1 (Locusta migratoria); test: competition with a labelled probe; conditions: 400 pmol unlabeled Mut vs 200 fmol labeled WT probe; EMSA: 20 ug nuclear extract, 200 fmol probe, 2.5% glycerol, 5 mM MgCl2, 1 M KCl, 50 ng poly(dI-dC), 0.05% NP-40, room temp 20 min; protein in an extract; label: 5' biotin (direct EMSA), unlabeled (competitor)
[4] = system: FOXN1 (Locusta migratoria); test: EMSA (nuclear extract); conditions: labeled Mut probe, no WT probe; EMSA: 20 ug nuclear extract, 200 fmol probe, 2.5% glycerol, 5 mM MgCl2, 1 M KCl, 50 ng poly(dI-dC), 0.05% NP-40, room temp 20 min; protein in an extract; label: 5' biotin (direct EMSA), unlabeled (competitor)
[5] = system: PTBP1 (endogenous) (Locusta migratoria); test: RNA pull-down with MS; conditions: terminal oocyte lysate, negative control probe; protein pull-down: 100 mM KCl, 20 mM Tris-HCl pH 7.6, 0.1% Triton X-100, 0.1% Tween-20, 4 C 2 h; protein in an extract; label: 3' biotin

AGCAGCGAGGUAUAGAGUUCCUACGUGUGUUGUUAUAGUAGGAACUUCAUACCGUGCUCUUG [pre-miR-276 (biotin, 62 nt)]
binding result [1]: binds

AGCAGCGAGGUAUAGAGUUCCUACGUGUGUUGUUAUAGUAGGAACUUCAUACCGUGCUCUUG [pre-miR-276 (chemically synthesized)]
binding result [2]: binds

GCTTGATTCCAGAATCACTAACAAC (double strand) [Mut probe]
binding result [3]: no binding | binding result [4]: no binding

UCCGCUCAUUCUGCCGGUUGUUAUGCUAUUAUCAGAUUAAGCAUCACAACCUCCUAGAAAGAGUAGAUC [NC (pre-miR-67, 69 nt)]
binding result [5]: no binding
